This is one part of the list. Single values of this set are uncertain.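 Tm was set to 64 °C where no melting was found, and many curves are irregular.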
Compound: CCc1cnccc1C(=O)Nc1cc2c(cc1F)NC(=O)CC2
Experiment: melting temperature shift (DMSO Tm minus MBE1-treated Tm) in cellular thermal proteome profiling; higher = less thermal stabilization by MBE1 (negative = stabilized by MBE1)
Conditions: A375

Protein sequences, listed by entry. Tags and fused reporters are not part of them. Lines headed by an entry give the natural chain unless they say otherwise; changes in a name come on top.
UniProt Q6ZRQ5: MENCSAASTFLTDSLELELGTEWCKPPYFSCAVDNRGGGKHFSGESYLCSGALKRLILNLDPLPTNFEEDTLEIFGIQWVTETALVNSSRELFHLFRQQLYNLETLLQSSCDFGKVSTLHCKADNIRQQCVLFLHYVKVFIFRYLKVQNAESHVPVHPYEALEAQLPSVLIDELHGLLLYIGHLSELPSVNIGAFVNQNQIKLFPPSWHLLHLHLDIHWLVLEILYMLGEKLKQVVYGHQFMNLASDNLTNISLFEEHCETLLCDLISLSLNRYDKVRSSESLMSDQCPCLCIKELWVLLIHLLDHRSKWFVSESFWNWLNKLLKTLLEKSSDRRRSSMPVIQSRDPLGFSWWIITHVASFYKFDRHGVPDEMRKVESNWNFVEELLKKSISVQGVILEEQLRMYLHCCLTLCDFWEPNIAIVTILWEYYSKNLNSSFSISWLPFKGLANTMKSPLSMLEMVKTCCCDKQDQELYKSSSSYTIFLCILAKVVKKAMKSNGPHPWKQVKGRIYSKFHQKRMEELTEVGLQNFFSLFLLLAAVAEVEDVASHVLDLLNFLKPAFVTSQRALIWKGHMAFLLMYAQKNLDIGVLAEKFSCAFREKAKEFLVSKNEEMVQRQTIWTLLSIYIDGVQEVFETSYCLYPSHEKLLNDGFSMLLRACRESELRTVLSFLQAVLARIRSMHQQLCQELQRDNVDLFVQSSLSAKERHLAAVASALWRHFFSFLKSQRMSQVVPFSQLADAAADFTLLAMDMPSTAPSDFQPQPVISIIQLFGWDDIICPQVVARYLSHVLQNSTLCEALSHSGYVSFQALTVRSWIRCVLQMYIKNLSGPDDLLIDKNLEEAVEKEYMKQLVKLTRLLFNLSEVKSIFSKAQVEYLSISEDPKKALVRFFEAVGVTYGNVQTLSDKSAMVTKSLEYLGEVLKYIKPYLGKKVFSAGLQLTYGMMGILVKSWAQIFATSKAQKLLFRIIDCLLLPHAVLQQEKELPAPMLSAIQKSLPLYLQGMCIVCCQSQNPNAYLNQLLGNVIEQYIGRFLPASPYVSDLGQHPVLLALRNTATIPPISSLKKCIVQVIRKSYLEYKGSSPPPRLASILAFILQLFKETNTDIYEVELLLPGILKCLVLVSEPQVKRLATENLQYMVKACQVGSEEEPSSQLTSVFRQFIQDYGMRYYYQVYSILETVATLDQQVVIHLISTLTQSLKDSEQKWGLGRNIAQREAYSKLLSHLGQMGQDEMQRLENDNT
UniProt Q6UW78: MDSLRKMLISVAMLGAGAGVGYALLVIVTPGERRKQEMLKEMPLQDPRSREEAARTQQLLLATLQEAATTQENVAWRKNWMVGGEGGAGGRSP
UniProt Q7L3B6: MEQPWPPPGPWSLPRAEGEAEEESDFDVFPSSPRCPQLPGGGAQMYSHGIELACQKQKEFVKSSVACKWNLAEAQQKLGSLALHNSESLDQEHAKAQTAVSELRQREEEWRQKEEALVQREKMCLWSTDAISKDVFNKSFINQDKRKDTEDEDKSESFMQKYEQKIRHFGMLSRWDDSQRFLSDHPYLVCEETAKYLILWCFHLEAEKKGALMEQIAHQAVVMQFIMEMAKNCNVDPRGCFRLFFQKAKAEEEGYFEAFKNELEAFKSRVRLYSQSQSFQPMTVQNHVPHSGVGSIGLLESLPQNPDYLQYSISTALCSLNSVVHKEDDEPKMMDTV
UniProt Q7L523, whole entry: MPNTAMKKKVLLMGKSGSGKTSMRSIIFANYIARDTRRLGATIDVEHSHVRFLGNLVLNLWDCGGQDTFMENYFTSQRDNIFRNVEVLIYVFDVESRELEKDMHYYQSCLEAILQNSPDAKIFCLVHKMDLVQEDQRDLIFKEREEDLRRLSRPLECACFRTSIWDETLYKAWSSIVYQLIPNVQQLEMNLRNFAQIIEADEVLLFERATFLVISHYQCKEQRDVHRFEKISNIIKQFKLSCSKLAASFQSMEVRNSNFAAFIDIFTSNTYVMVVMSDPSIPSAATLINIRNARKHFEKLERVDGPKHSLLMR
UniProt Q6PID6, whole entry: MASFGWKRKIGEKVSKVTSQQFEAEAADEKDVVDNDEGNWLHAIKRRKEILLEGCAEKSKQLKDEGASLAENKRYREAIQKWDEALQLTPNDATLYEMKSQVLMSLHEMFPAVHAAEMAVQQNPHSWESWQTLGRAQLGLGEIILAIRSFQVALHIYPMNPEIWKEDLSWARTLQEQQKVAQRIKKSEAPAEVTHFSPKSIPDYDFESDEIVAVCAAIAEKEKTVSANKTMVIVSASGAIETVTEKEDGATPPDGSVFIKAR
UniProt Q86TI0: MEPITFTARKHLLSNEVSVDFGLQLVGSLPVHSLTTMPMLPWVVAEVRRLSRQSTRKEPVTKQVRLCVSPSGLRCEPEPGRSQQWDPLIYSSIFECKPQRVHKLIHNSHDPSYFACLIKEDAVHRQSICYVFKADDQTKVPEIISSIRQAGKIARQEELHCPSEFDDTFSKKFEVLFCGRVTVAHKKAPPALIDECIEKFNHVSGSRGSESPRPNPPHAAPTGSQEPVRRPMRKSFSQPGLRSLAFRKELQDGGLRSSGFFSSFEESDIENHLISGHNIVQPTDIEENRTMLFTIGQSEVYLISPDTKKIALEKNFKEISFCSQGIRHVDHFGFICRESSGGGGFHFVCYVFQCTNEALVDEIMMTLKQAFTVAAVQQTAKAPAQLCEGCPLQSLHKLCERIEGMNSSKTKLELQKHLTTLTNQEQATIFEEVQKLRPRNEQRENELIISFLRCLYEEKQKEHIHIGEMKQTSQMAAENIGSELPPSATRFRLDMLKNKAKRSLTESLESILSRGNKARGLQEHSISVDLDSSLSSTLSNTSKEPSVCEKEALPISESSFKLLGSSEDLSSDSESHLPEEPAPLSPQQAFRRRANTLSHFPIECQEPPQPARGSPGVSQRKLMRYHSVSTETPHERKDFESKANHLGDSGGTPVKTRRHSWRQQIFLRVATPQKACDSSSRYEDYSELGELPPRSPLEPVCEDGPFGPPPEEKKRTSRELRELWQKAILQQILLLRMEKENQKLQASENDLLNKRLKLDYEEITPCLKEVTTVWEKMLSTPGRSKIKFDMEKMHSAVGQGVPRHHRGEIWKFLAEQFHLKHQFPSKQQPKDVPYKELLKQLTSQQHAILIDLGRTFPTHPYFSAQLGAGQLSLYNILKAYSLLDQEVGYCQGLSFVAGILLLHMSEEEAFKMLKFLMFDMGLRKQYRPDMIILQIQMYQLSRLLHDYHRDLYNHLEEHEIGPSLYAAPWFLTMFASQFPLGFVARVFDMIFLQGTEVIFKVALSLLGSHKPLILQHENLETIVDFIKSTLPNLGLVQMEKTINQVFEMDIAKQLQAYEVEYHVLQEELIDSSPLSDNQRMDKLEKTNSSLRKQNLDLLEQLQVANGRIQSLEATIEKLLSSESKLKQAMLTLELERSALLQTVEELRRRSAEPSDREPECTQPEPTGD
UniProt Q6ZMI0: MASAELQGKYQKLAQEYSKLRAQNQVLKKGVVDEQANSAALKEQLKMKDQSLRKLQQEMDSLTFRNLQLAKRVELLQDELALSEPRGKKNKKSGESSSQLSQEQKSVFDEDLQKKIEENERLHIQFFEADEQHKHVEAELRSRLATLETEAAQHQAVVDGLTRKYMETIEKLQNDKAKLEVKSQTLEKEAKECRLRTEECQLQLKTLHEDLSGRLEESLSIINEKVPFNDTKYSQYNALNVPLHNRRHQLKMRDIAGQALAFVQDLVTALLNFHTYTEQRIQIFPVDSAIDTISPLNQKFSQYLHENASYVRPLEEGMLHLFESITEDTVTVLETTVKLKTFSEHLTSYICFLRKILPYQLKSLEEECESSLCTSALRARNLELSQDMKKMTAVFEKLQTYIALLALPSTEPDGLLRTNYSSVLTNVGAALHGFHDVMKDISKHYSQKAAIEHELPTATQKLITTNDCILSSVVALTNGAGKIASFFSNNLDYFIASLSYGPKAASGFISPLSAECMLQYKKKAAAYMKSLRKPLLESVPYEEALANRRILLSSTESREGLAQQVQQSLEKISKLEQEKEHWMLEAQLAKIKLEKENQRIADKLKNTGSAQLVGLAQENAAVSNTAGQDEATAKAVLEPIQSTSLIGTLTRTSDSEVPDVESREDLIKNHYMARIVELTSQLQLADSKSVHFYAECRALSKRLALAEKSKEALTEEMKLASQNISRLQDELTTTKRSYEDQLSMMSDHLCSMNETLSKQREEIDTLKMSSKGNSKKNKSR
UniProt Q7L3T8: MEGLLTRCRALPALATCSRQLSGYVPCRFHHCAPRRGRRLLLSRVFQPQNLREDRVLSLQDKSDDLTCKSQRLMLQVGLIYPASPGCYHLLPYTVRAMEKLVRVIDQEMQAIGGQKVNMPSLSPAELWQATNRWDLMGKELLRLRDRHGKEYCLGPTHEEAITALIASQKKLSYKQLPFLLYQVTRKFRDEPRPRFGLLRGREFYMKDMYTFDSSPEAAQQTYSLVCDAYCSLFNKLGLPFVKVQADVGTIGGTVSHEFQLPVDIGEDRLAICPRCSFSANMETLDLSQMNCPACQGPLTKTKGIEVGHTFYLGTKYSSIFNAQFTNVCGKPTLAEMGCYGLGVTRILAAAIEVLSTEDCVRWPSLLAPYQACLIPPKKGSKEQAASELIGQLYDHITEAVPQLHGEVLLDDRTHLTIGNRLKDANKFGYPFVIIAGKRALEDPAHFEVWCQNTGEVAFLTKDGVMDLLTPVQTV
UniProt Q7Z4Q2: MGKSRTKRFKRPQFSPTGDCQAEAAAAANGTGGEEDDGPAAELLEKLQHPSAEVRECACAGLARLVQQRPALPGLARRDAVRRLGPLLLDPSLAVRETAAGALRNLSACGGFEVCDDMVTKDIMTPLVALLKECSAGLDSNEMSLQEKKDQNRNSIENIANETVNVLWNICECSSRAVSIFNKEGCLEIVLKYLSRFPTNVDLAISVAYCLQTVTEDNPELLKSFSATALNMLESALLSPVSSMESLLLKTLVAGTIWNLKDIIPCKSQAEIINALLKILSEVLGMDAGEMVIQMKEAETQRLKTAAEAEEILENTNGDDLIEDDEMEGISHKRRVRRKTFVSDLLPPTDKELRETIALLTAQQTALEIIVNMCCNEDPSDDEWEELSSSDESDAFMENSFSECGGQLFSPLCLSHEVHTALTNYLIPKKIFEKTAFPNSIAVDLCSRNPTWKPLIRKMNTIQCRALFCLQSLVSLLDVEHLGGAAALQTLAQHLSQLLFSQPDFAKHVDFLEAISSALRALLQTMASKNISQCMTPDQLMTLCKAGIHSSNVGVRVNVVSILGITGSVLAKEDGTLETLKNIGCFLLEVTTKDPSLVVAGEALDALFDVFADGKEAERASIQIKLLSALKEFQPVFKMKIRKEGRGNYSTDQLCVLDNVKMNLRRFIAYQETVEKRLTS
UniProt Q7L2E3: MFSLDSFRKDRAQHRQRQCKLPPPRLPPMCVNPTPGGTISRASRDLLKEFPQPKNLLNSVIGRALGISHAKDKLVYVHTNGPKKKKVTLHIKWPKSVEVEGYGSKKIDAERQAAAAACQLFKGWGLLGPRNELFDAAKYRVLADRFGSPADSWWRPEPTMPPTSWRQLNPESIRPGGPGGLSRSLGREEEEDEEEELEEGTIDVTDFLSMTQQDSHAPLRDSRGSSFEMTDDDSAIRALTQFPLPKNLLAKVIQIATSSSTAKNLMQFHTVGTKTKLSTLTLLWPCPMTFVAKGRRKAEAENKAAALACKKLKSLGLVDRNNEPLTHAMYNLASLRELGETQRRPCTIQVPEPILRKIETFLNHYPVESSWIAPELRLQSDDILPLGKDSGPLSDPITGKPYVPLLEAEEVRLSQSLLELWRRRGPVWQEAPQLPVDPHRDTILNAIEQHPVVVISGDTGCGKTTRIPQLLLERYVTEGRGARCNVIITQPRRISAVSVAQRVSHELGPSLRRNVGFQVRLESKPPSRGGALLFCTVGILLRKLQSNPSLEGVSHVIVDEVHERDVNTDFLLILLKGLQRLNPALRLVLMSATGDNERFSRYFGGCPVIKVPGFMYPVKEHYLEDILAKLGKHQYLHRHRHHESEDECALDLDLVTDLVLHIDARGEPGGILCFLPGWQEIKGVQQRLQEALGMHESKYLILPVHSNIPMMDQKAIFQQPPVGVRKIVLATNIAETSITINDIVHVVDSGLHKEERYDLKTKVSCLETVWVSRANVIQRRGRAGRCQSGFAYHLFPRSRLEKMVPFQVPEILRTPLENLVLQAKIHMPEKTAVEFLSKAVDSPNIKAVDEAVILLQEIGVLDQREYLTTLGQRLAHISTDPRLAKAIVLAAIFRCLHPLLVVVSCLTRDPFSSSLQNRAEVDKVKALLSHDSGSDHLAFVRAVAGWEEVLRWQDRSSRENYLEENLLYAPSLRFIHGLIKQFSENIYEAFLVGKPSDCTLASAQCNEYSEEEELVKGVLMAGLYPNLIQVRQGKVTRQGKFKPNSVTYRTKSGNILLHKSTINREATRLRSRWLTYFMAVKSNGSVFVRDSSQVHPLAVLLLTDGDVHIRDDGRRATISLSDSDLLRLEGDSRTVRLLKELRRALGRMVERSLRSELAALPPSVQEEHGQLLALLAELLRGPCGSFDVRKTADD

Target	melting temperature shift (MBE1 concentration: 100 nM) [°C]	melting temperature shift (MBE1 concentration: 1 uM) [°C]
PRPF39 (UniProt Q86UA1)	-0.404	-0.0513
ELMSAN1 (UniProt Q6PJG2)	-0.154	-0.391
MRPL10 (UniProt Q7Z7H8)	1.39	1.47
UniProt Q7Z7A1	-2.54	-0.215
PRUNE (UniProt Q86TP1)	1.33	0.409
NUFIP2 (UniProt Q7Z417)	-1.5	-0.9
ARHGAP27 (UniProt Q6ZUM4)	-0.779	1.72
EPM2AIP1 (UniProt Q7L775)	0.342	0.336
ATG9A (UniProt Q7Z3C6)	-0.299	0.116
NDUFAF7 (UniProt Q7L592)	-1.03	-0.221
UniProt Q6ZRQ5	0.664	2.49
SND1 (UniProt Q7KZF4)	-0.57	-0.54
ACAD11 (UniProt Q709F0)	-2.04	0.25
UniProt Q7Z6K5	-0.195	-0.104
DHRS11 (UniProt Q6UWP2)	0.402	0.423
CTR9 (UniProt Q6PD62)	-0.179	-0.032
UniProt Q6P9B9	0.427	0.311
UniProt Q6UW78	0.055	0.238
DPP9 (UniProt Q86TI2)	-0.275	0.33
CDC37L1 (UniProt Q7L3B6)	0.202	0.0916
UniProt Q75N03	0.583	-0.532
R3HCC1L (UniProt Q7Z5L2)	-0.494	1.74
UniProt Q7L523	-3.76	1

A portion of the results above:
Target	melting temperature shift (MBE1 concentration: 100 nM) [°C]	melting temperature shift (MBE1 concentration: 1 uM) [°C]
NDUFAF7 (UniProt Q7L592)	-1.03	-0.221
UniProt Q6ZRQ5	0.664	2.49
SND1 (UniProt Q7KZF4)	-0.57	-0.54
ACAD11 (UniProt Q709F0)	-2.04	0.25
UniProt Q7Z6K5	-0.195	-0.104
DHRS11 (UniProt Q6UWP2)	0.402	0.423
CTR9 (UniProt Q6PD62)	-0.179	-0.032
UniProt Q6P9B9	0.427	0.311
UniProt Q6UW78	0.055	0.238
DPP9 (UniProt Q86TI2)	-0.275	0.33
CDC37L1 (UniProt Q7L3B6)	0.202	0.0916
UniProt Q75N03	0.583	-0.532
R3HCC1L (UniProt Q7Z5L2)	-0.494	1.74
UniProt Q7L523	-3.76	1

The results go on:

Target	melting temperature shift (MBE1 concentration: 100 nM) [°C]	melting temperature shift (MBE1 concentration: 1 uM) [°C]
APOOL (UniProt Q6UXV4)	-2.67	-2.41
BRAP (UniProt Q7Z569)	0.0988	-0.32
TTC33 (UniProt Q6PID6)	-2.94	-1.58
UniProt Q86TI0	0.618	-2.78
HAUS6 (UniProt Q7Z4H7)	-0.733	-0.467
COX15 (UniProt Q7KZN9)	-0.402	-0.0532
CLASP1 (UniProt Q7Z460)	-0.935	-0.756
RAB11FIP1 (UniProt Q6WKZ4)	0.305	-0.116
MAVS (UniProt Q7Z434)	-0.221	0.121
Q6ZMK1 (UniProt P0DTL5)	-1.47	0.369
UniProt Q75QN2	-0.0733	-0.0244
UBE3B (UniProt Q7Z3V4)	0.151	0.00891
UniProt Q7Z6I8	-3.05	-3.27
AFTPH (UniProt Q6ULP2)	0.342	0.586
UniProt Q76I76	1.5	-0.0916
YTHDF3 (UniProt Q7Z739)	-0.121	0.372
NBEAL2 (UniProt Q6ZNJ1)	-0.78	-0.441
UniProt Q6PL18	0.358	-0.458
UniProt Q86V59	-1.2	-1.15
IQGAP3 (UniProt Q86VI3)	-0.732	-0.359
B3GLCT (UniProt Q6Y288)	-0.798	0.402
BZW1 (UniProt Q7L1Q6)	-0.546	0.00941
UniProt Q86US8	-1.18	-0.0753

Target	melting temperature shift (MBE1 concentration: 100 nM) [°C]	melting temperature shift (MBE1 concentration: 1 uM) [°C]
UniProt Q86SX3	2	0.965
GIGYF2 (UniProt Q6Y7W6)	-0.96	-0.414
WAPL (UniProt Q7Z5K2)	-0.621	-0.352
SUPT6H (UniProt Q7KZ85)	-0.682	-0.574
AEBP2 (UniProt Q6ZN18)	-1	0.0256
PPP1R21 (UniProt Q6ZMI0)	-0.418	-0.442
UniProt Q71UI9	0.0961	-0.625
RAPH1 (UniProt Q70E73)	-0.324	0.58
UniProt Q7Z7M0	-1.23	0.768
BRAT1 (UniProt Q6PJG6)	-0.634	0.301
PARS2 (UniProt Q7L3T8)	-1.48	0.342
MRPL21 (UniProt Q7Z2W9)	0.446	1.42
HEATR3 (UniProt Q7Z4Q2)	-0.0518	0.715
CTU1 (UniProt Q7Z7A3)	0.926	1.55
AAGAB (UniProt Q6PD74)	-1.42	-0.302
TRMT1L (UniProt Q7Z2T5)	0.727	0.855
RABEPK (UniProt Q7Z6M1)	1.61	0.0591
C16ORF62 (UniProt Q7Z3J2)	0.885	0.183
DHX30 (UniProt Q7L2E3)	0.183	-0.214
GLRX5 (UniProt Q86SX6)	-1.48	0.295
KIAA0907 (UniProt Q7Z7F0)	1.43	-0.586
HUWE1 (UniProt Q7Z6Z7)	0.379	0.513
UniProt Q6PCT2	0.659	-0.403

Reference: the supplement of paper PMC12595434, “Development of retinoid nuclear receptor pathway antagonists through targeting aldehyde dehydrogenase 1A3” (iScience, 2025)
